This note sets out measurements from paper PMC3374257.

Protein sequences, listed by entry. Tags and fused reporters are not part of them.
UniProt Q8BKJ9: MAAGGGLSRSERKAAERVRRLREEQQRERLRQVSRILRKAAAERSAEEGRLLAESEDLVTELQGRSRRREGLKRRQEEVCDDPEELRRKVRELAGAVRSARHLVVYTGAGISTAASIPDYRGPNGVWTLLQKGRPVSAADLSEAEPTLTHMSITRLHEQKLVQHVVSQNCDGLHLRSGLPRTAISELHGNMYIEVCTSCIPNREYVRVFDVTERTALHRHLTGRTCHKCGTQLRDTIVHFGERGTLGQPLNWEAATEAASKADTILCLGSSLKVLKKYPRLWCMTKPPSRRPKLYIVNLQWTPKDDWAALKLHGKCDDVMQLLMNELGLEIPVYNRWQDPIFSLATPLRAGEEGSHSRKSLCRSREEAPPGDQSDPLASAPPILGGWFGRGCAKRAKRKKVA

For experiment [1], the target named is T1, Sirt1 (UniProt Q923E4).
T1 sequence: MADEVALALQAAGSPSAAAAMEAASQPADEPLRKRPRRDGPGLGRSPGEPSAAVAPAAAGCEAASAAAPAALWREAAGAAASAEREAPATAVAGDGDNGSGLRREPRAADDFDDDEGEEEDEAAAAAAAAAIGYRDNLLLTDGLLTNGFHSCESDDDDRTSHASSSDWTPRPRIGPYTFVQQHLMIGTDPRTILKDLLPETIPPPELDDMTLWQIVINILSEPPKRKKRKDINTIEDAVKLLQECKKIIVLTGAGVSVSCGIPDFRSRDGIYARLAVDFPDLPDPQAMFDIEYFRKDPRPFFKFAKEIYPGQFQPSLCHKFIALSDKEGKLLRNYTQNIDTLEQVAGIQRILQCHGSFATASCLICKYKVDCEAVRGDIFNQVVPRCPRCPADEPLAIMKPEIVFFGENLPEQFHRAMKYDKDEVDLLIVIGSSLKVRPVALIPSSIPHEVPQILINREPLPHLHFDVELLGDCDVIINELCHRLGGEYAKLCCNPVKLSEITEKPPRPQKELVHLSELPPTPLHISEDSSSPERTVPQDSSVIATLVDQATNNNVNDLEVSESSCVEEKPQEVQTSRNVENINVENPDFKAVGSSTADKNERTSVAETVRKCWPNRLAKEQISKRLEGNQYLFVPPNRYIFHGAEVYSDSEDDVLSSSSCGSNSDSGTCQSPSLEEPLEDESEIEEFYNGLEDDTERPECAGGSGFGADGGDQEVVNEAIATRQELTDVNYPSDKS
The experiment is described as follows: co-IP; immunoprecipitation of endogenous proteins.

The target of experiment [2] is T1, Sirt1. The experiment is described as follows: pull-down; GST pull-down assays; which partner carried GST is not stated.

Results are given in words; binding and its absence hold for the method and conditions named. Binding seen in cells or lysates may run through a third protein. Some results given as binding are weak or reduced against the parent protein; the word gives no strength.

With Sirt7 (from UniProt Q8BKJ9 1-402), the binding result in the experiment with Sirt1 [1] and in the experiment with Sirt1 [2] was “binds” throughout.
